Results reported in doi:10.64898/2025.12.05.692556.
Results are given in words; binding and its absence hold for the method and conditions named. Binding seen in cells or lysates may run through a third protein. Here binding means that the protein was enriched with, or labelled near, the bait; the list need not be complete.

Tests used:
Assay in all cases: affinity purification with mass spectrometry
[1] = biological target: HA-tagged full-length Usutu virus (USUV) non-structural protein 5 (NS5) (Usutu virus)
[2] = biological target: HA-tagged full-length West Nile virus (WNV) non-structural protein 5 (NS5) (West Nile virus)
[3] = biological target: HA-tagged full-length Zika virus (ZIKV) non-structural protein 5 (NS5) (Zika virus)

Measured: binding

B1: Sideroflexin-1 (SFXN1) (protein, UniProt Q9H9B4 1-322)
chain: MSGELPPNINIKEPRWDQSTFIGRANHFFTVTDPRNILLTNEQLESARKIVHDYRQGIVPPGLTENELWRAKYIYDSAFHPDTGEKMILIGRMSAQVPMNMTITGCMMTFYRTTPAVLFWQWINQSFNAVVNYTNRSGDAPLTVNELGTAYVSATTGAVATALGLNALTKHVSPLIGRFVPFAAVAAANCINIPLMRQRELKVGIPVTDENGNRLGESANAAKQAITQVVVSRILMAAPGMAIPPFIMNTLEKKAFLKRFPWMSAPIQVGLVGFCLVFATPLCCALFPQKSSMSVTSLEAELQAKIQESHPELRRVYFNKGL
binds: [1] | [2] | [3]
